Data as given in PubChem BioAssay AID743121 (NCATS, 2013)

Test: 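Genes whose silencing strengthens cell killing by camptothecin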 (primary screen)
Cells: MDA-MB-231 cells, a human breast cancer line
Reagents: single siRNA against human genes, 20 nM siRNA (0.8 pmol per well)
Duration: 120 h (drug added 48 h after transfection, read 72 h later)
Challenge: camptothecin 20 nM (about EC30) for 72 h; vehicle 0.1% DMSO in parallel plates
Measurement: 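CellTiter-Glo ATP signal, scaled to control siRNA as percent viability; sensitisation given as log2 of untreated divided by camptothecin-treated viability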
Direction: log2 vehicle/camptothecin viability: higher = stronger sensitisation to camptothecin; viability with camptothecin: higher = more viable cells
Units: viability with camptothecin in % of control
Hit rule: 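Active genes have an RSA gene-level p-value below 0.001, computed from the ratios of their separate siRNAs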
Here is a random part of about 26,000 deposited reagents. Of all reagents, 167 (0.63%) were called active. 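Calls are per gene from RSA p-values that are not deposited; an individual active-marked siRNA can sensitise only weakly.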 Reagents against one gene are numbered here. Further read-outs or replicates are left out here.

Silencing of KLF13 #1 came out at: log2 vehicle/camptothecin viability -0.0718; viability with camptothecin 105; inactive.
Against KLF13 #2 the deposit lists log2 vehicle/camptothecin viability -0.139; viability with camptothecin 108; inactive.
After knock-down of KLF13 #3, the record shows log2 vehicle/camptothecin viability 0.277; viability with camptothecin 37.9; inactive.
KLF13 #4 scored log2 vehicle/camptothecin viability -0.0508; viability with camptothecin 107; inactive.
TKTL1 #1 gave log2 vehicle/camptothecin viability -0.101; viability with camptothecin 52.5; inactive.
TKTL1 #2 scored log2 vehicle/camptothecin viability -0.0139; viability with camptothecin 94.7; inactive.
With knock-down of TKTL1 #3, the record shows log2 vehicle/camptothecin viability 0.0528; viability with camptothecin 83.6; inactive.
TKTL1 #4 scored log2 vehicle/camptothecin viability -0.135; viability with camptothecin 97.3; inactive.
Against GPRC5D #1, the values are log2 vehicle/camptothecin viability -0.113; viability with camptothecin 92.4; inactive.
Against GPRC5D #2, the values are log2 vehicle/camptothecin viability 0.234; viability with camptothecin 41.8; inactive.
Knock-down of GPRC5D #3 came out at: log2 vehicle/camptothecin viability -0.276; viability with camptothecin 45.4; inactive.
With knock-down of GPRC5D #4, the record shows log2 vehicle/camptothecin viability -0.164; viability with camptothecin 49.4; inactive.
KIF1A #1 scored log2 vehicle/camptothecin viability -0.0174; viability with camptothecin 44.6; inactive.
Silencing of KIF1A #2 resulted in: log2 vehicle/camptothecin viability -0.0303; viability with camptothecin 59.5; inactive.
Knock-down of KIF1A #3 gave: log2 vehicle/camptothecin viability 1.01; viability with camptothecin 12.2; inactive.
Against MMP11 #1, the values are log2 vehicle/camptothecin viability 0.0262; viability with camptothecin 58.5; inactive.
With knock-down of MMP11 #2, the record shows log2 vehicle/camptothecin viability 0.0993; viability with camptothecin 98.7; inactive.
After knock-down of MMP11 #3, the screen gave log2 vehicle/camptothecin viability -0.152; viability with camptothecin 82.8; inactive.

5 successive entries from above, quoted:
TKTL1 #1 — log2 vehicle/camptothecin viability = -0.101; viability with camptothecin = 52.5; Outcome = inactive
TKTL1 #2 — log2 vehicle/camptothecin viability = -0.0139; viability with camptothecin = 94.7; Outcome = inactive
TKTL1 #3 — log2 vehicle/camptothecin viability = 0.0528; viability with camptothecin = 83.6; Outcome = inactive
TKTL1 #4 — log2 vehicle/camptothecin viability = -0.135; viability with camptothecin = 97.3; Outcome = inactive
GPRC5D #1 — log2 vehicle/camptothecin viability = -0.113; viability with camptothecin = 92.4; Outcome = inactive

Continued.
CDK6 #1 showed log2 vehicle/camptothecin viability -0.187; viability with camptothecin 66.2; inactive.
For CDK6 #2, the values are log2 vehicle/camptothecin viability -0.421; viability with camptothecin 114; inactive.
CDK6 #3 scored log2 vehicle/camptothecin viability 0.0207; viability with camptothecin 78.9; inactive.
After knock-down of CDK6 #4, the record shows log2 vehicle/camptothecin viability 0.0803; viability with camptothecin 61.6; inactive.
With knock-down of USP24 #1, the screen gave log2 vehicle/camptothecin viability 0.0187; viability with camptothecin 96.5; inactive.
With knock-down of USP24 #2, the record shows log2 vehicle/camptothecin viability 0.563; viability with camptothecin 73.2; inactive.
USP24 #3 scored log2 vehicle/camptothecin viability 0.0545; viability with camptothecin 77; inactive.
TXNDC15 #1 showed log2 vehicle/camptothecin viability -0.255; viability with camptothecin 103; inactive.
Depletion of TXNDC15 #2 gave: log2 vehicle/camptothecin viability -0.256; viability with camptothecin 70.3; inactive.
Against TXNDC15 #3 the deposit lists log2 vehicle/camptothecin viability -0.33; viability with camptothecin 99.3; inactive.
With knock-down of TXNDC15 #4, the record shows log2 vehicle/camptothecin viability -0.0285; viability with camptothecin 109; inactive.
Against MAPK7 #1, the entry reads log2 vehicle/camptothecin viability -0.377; viability with camptothecin 83.4; inactive.
After knock-down of MAPK7 #2, the screen gave log2 vehicle/camptothecin viability -0.314; viability with camptothecin 67.9; inactive.
Knock-down of MAPK7 #3 resulted in: log2 vehicle/camptothecin viability -0.164; viability with camptothecin 99.3; inactive.
With knock-down of MAPK7 #4 the results were log2 vehicle/camptothecin viability -0.184; viability with camptothecin 91.4; inactive.
Against ITGA2B #1, the values are log2 vehicle/camptothecin viability -0.0995; viability with camptothecin 46.1; inactive.
Against ITGA2B #2 the deposit lists log2 vehicle/camptothecin viability -0.0928; viability with camptothecin 75.7; inactive.
ITGA2B #3 gave log2 vehicle/camptothecin viability 0.995; viability with camptothecin 38.8; inactive.
Depletion of RXFP1 #1 gave: log2 vehicle/camptothecin viability 0.0988; viability with camptothecin 73; inactive.
RXFP1 #2 gave log2 vehicle/camptothecin viability 0.254; viability with camptothecin 45.7; inactive.
With knock-down of RXFP1 #3, the record shows log2 vehicle/camptothecin viability -0.34; viability with camptothecin 55.5; inactive.
RXFP1 #4 gave log2 vehicle/camptothecin viability -0.0786; viability with camptothecin 69.2; inactive.
Silencing of ELN #1 resulted in: log2 vehicle/camptothecin viability -0.0622; viability with camptothecin 74.6; inactive.
ELN #2 gave log2 vehicle/camptothecin viability -0.0938; viability with camptothecin 49.2; inactive.
Silencing of ELN #3 gave: log2 vehicle/camptothecin viability -0.485; viability with camptothecin 71.1; inactive.
Knock-down of ELN #4 gave: log2 vehicle/camptothecin viability 0.293; viability with camptothecin 62.5; inactive.
BUB3 #1 scored log2 vehicle/camptothecin viability -0.298; viability with camptothecin 39.5; inactive.
With knock-down of BUB3 #2, the record shows log2 vehicle/camptothecin viability -0.268; viability with camptothecin 64.5; inactive.
After knock-down of BUB3 #3, the record shows log2 vehicle/camptothecin viability -0.454; viability with camptothecin 36.9; inactive.
Depletion of BUB3 #4 gave: log2 vehicle/camptothecin viability -0.283; viability with camptothecin 87.7; inactive.
